Library screening results

From ChEMBL document CHEMBL3988442, “University of Dundee, Small-Polar-MMV Screening Library” (2021).

Mtb growth Cornell: 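Whole-cell assay for inhibitors of Mycobacterium tuberculosis growth, labelled Cornell in the record; the read-out is not stated. The concentration is filed as 10 mM, unlikely as a test dose, so the dose is not known. The record gives no direction; compounds strong in two other growth screens of this library score well above the rest, so higher reads as stronger inhibition. Of about 53,000 compounds tested this way, about 900 (1.7%) reached 50% or more in at least one test.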
Mtb heat-shock: 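Assay on Mycobacterium tuberculosis, filed only as a heat shock assay from Cornell; the read-out is not stated. The concentration is filed as 10 mM, unlikely as a test dose, so the dose is not known. Direction is inferred from retests: higher values go with stronger inhibition. About 69,000 compounds were tested under these conditions; 1.4% (about 930) showed 50% or more at least once.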

Results are given as percent effect.
How 0% and 100% were set is not recorded. Most values in the screen are low, and negative values occur.
The compounds are a random part of those screened.
A dash means the value is not listed here; it may have been measured.

structure	Mtb growth Cornell	Mtb heat-shock
CC(C)Cc1noc(-c2ccc(NCc3noc(C(C)C)n3)nc2)n1	44.87	-11.18
Cc1cc(NC(C)c2nncn2C2CCCC2)n2nc(C)cc2n1 (stereo unspecified)	-	29.68
COc1ccccc1N1CCN(Cc2cnc3c(c2)c(C)nn3C)CC1	-9.736	13.24
CC(NCc1ccccc1Br)c1ccc2[nH]c(=O)[nH]c2c1 (stereo unspecified)	-9.032	16.99
CN(CC(=O)N1CCN(c2ccccc2F)CC1)c1cnccn1	20.8	2.374
CC(C)Oc1ccccc1NC(=O)N1CCC(n2cncn2)CC1	-33.86	-9.011
O=C(O)C(F)(F)F.[H][C@@]12COC[C@]1(CN(C)C)CN(C(=O)Cc1ccc(OC)cc1)C2	2.422	-1.819
Cc1c(C(=O)O)oc2ccc(I)cc12	5.775	-24.27
CN(Cc1ccncc1)C(CO)c1cccc(Br)c1 (stereo unspecified)	15.58	-25.61
CC1N(CC2CC2)C(=O)COC12CCN(C(=O)c1cccs1)CC2 (stereo unspecified)	3.819	-3.841
CC(C)c1ccc(OCCC(=O)N2CCC(C(=O)N(C)C)CC2)cc1	-	-7.575
CCn1ncc(-c2cc(C(F)F)n3nc(CCC(=O)O)nc3n2)c1C	3.586	-3.282
Cl.c1cc(CNCc2cccc3c2OCCCO3)cc(Cn2cncn2)c1	-4.142	-3.738
CC(NC(=O)NCc1ccc(Cl)cc1)c1ccccn1 (stereo unspecified)	-	4.914
CN(C)C(=O)N1CCN(C)c2ncccc2C1	-35.02	-40.78
CCc1nc(CN2CCCN(CC(=O)Nc3cccnc3)CC2)no1	-27.55	18.3
CN(C)[C@@H]1CCN(S(C)(=O)=O)[C@H]1Cc1ccccc1	14.76	18.74
CCc1nc(CNc2ccc(F)c(F)c2)no1	-	-18.96
COc1ccccc1NC(=O)c1ccc(C)n1C	27.91	3.077
O=C(O)C(F)(F)F.[H][C@@]12COC[C@@H](CC(=O)N3CCCC3)[C@]1([H])CN(C(=O)c1cccc(C)n1)C2	6.912	-12.77
COc1ccc(OC)c(C2CCN(CC(C)(C)N3CCOCC3)C2)c1 (stereo unspecified)	-53.82	-6.779
CC(C#N)(NC(=O)COc1ccccc1Br)C1CC1 (stereo unspecified)	-35.08	-27.08
Cc1cccc2nc(C(=O)N3CCC4(CCC(=O)N(C)C4)CC3)c(F)n12	22.87	7.513
CCc1ncc(C(=O)N2CCCN(C3CCCCC3)CC2)cn1	-21.01	-4.182
FC(F)(F)CN1CCC(CNc2nc3ccccc3o2)C1 (stereo unspecified)	27.25	-18.02
COc1cccc(N2CCC(CNC(=O)NCc3ccco3)C2)c1 (stereo unspecified)	-31.24	10.66
Cc1nn(C)c(Cl)c1CNCc1cccnc1N1CCCCC1.Cl	10.36	-10.41
CCc1nnc2n1CCN(CC(=O)Nc1cc(C(C)(C)C)nn1C)C2	-	-8.04
O=C(O)C(F)(F)F.O=C(O)C(F)(F)F.[H][C@]12C[C@@H](CN3CCCC3)N(C(C)C)[C@@]1([H])CCN(C(=O)c1ccoc1)C2	10.98	-2.421
CC(C)Oc1ncnc2c1CCN(Cc1ccoc1)CC2.O=C(O)C(F)(F)F	19.06	-11.73
Cc1ccc(CN(Cc2cccnc2)C2CC(C)(C)NC(C)(C)C2)s1.O=C(O)CC(O)(CC(=O)O)C(=O)O	-13.29	-4.253
[H][C@@]12CN(C(=O)NC3CCCCC3)C[C@]1(C(=O)O)CN(c1cnccn1)C2	-	-87.31
N#Cc1cccc(OCCN2CCCC2C(=O)N2CCSCC2)c1 (stereo unspecified)	-	-5.879
COCc1n[nH]/c(=N\C(=O)c2c3c(nc4onc(C)c24)CCC3)s1	12.35	-6.154
CC(=O)N1CCN(C(=O)CN(C)c2ccc(Cl)cn2)CC1	-	-15.55
O=C(O)C(F)(F)F.[H][C@]12CCC[C@@H](CN(C)CCOC)[C@@]1([H])CN(c1ncccn1)C2	-	-5.042
O=C(O)C(F)(F)F.[H][C@@]12CCN(c3ncc(F)cn3)[C@]1([H])CC[C@H](C(=O)NC1CC1)O2	-3.145	8.547
Cc1cc(C)n(C2CCCN(C(=O)Cn3ccc(=O)n(C)c3=O)C2)n1 (stereo unspecified)	-	10.6
COc1ccccc1OC1CN(C(=O)Cc2c(C)nc(N)nc2C)C1	-1.807	-6.582
O=C(O)C(F)(F)F.O=C1N(CC2CC2)CCC12CCN(c1ncccn1)CC2	16.92	-22.74
COCC1CC2(CCN(Cc3ccc(OC)cc3)CC2)CN1C(C)C.O=C(O)C(F)(F)F.O=C(O)C(F)(F)F (stereo unspecified)	1.396	-6.003
CN1CCN(c2ccc(F)cc2NC(=O)NCC[S+](C)[O-])CC1 (stereo unspecified)	13.93	-6.248
CN1CCN(Cc2nnc(C3CCN(S(C)(=O)=O)CC3)n2C)CC1	-3.195	-4.133
O=C(C1CCOCC1)N1CC[C@@H](N2CCOCC2)[C@@H]1Cc1ccccc1	5.955	3.222
Cc1ccccc1OCC(=O)N1CCCC(CNS(C)(=O)=O)C1 (stereo unspecified)	-	-3.882
COC(=O)C(O)C1CCN(CCc2ccc(C)cc2)CC1 (stereo unspecified)	-9.512	-5.7
CCC(Nc1ncccn1)c1ccc(OC)cc1 (stereo unspecified)	6.972	-23.84
O=C(O)C(F)(F)F.[H][C@@]12CCN(c3ncccn3)C[C@@]1([H])O[C@H](C(=O)NCCOC)C2	-	-37.39
O=C(NCCN1CCOCC1)N(CCCO)C1CCCc2ccccc21 (stereo unspecified)	-21.14	-22.69
[H][C@]12CCN(C(=O)COC)CC[C@@]1([H])S(=O)(=O)N(Cc1ccccc1)C2	8.481	5.042
O=C(O)C(F)(F)F.O=S(=O)(c1cccs1)N1CCCn2cnc(CN3CCCC3)c2C1	-10.48	-0.5698
CCc1nnc(SCc2nonc2C)n1C1CC1	41.99	8.408
[H][C@]12CC[C@]([H])(CC(=O)NC1)N2c1cc(-c2ccccc2F)nc2ccnn12	19.24	8.242
CCCN(CC)C(=O)c1nc2c(n1C)CCN(Cc1ccccc1)C2	-21.89	20.86
CCn1ncc2c1C(COC)CN(Cc1ccco1)C2 (stereo unspecified)	-	-20.92
O=C(CCCn1cnnn1)N1CCC(c2ccncc2)CC1	-23.17	-9.312
O=C(COCC1CC1)Nc1ncccc1O	-3.464	-3.724
COCC(=O)NCCC(=O)N1CCN(S(=O)(=O)c2ccc(Br)cc2)CC1	-5.231	-2.462
[H][C@@]12CNCC[C@]1(O)CCN(c1ncccc1Cl)C2	-	-16.24
O=C(c1cnccn1)N1CCN(CC2CC2)c2ncccc2C1	-6.673	-14.42
CC(C)n1cc(CN2CCCN(C(=O)c3ccc[nH]3)CC2)cn1	10.09	0.2746
Cc1nc(C2(O)CCCNCC2)sc1CCOc1ccccc1.Cl (stereo unspecified)	-7.626	-21.04
Cc1cc(NC(=O)NCCO)nn1-c1ccc(Cl)cc1Cl	10.72	-2.314
Cc1noc(CN(Cc2cccc(C#N)c2)Cc2ccco2)n1	-	4.442
CCOCCNC(=O)Cc1cccc(I)c1	4.901	4.378

Repeated from the top, 7 entries:

For CC(C)Cc1noc(-c2ccc(NCc3noc(C(C)C)n3)nc2)n1 the result was Mtb growth Cornell: 44.87%; Mtb heat-shock: -11.18%.
For Cc1cc(NC(C)c2nncn2C2CCCC2)n2nc(C)cc2n1 (stereo unspecified) the result was Mtb heat-shock: 29.68%.
For COc1ccccc1N1CCN(Cc2cnc3c(c2)c(C)nn3C)CC1 the result was Mtb growth Cornell: -9.736%; Mtb heat-shock: 13.24%.
For CC(NCc1ccccc1Br)c1ccc2[nH]c(=O)[nH]c2c1 (stereo unspecified) the result was Mtb growth Cornell: -9.032%; Mtb heat-shock: 16.99%.
For CN(CC(=O)N1CCN(c2ccccc2F)CC1)c1cnccn1 the result was Mtb growth Cornell: 20.8%; Mtb heat-shock: 2.374%.
For CC(C)Oc1ccccc1NC(=O)N1CCC(n2cncn2)CC1 the result was Mtb growth Cornell: -33.86%; Mtb heat-shock: -9.011%.
For O=C(O)C(F)(F)F.[H][C@@]12COC[C@]1(CN(C)C)CN(C(=O)Cc1ccc(OC)cc1)C2 the result was Mtb growth Cornell: 2.422%; Mtb heat-shock: -1.819%.